Test results reported in patent publication US8883834B2, “Methods and compositions for locally increasing body fat” (Topokine Therapeutics, Inc., priority 2012, dated 2014).
At least one compound was matched to its structure with a doubt left.

Assays:
C57BL/6J [1] = test: Randomized controlled trial in mice, compounds in Lipoderm applied daily to right flank (Example 1); type: in vivo
Description: The arms were as follows: vehicle (Lipoderm®), a thiazolidinedione (pioglitazone), harmine, an orexigenic compound (megestrol acetate), and efavirenz. Each compound was combined in the percutaneous Lipoderm® formulation at an equimolar concentration (5 mM). The Lipoderm® vehicle is adapted to deliver the respective compound percutaneously, i.e., across the skin and into subcutaneous fat. The formulations were applied daily to the right flank of each animal, whereas the left flank was used as an untreated control.
A randomized controlled trial was conducted on C57BL/6J. Male mice approximately six weeks old were prospectively randomized into groups and assigned to the following treatment conditions (n=5 animals per group):
Animals were shaved and depilated over the flanks at the start of the study.
Animals were kept in identical conditions and fed ab libitum with a standardized high-fat diet (70% kcal fat). Animals were weighed three times weekly. Following 24 consecutive days of treatment, mice were sacrificed and samples of skin and adjacent fat from the treated flanks are taken for histologic examination.

human subjects = test: Randomized double-blind study, cheek fat in HIV lipodystrophy (Example 6); type: in vivo; conditions: 1% in percutaneous vehicle once a day to the cheeks, after 3 months; contemplated
C57BL/6J [2] = test: Mouse study of percutaneous rosiglitazone, subcutaneous fat thickness by histology (Example 2); conditions: vehicle 6.6%
patient [3] = test: Clinical application for midface augmentation (Example 7); type: in vivo, human; conditions: composition of Example 3 daily, after 3 months; contemplated
patient [4] = test: Application to reduce skin wrinkles of the hands (Example 10); type: in vivo, human; conditions: composition of Example 3 daily to dorsal skin of both hands, after 3 months; contemplated
patient [5] = test: Clinical application for breast augmentation (Example 8); type: in vivo, human; conditions: composition of Example 3 daily to skin of both breasts, after 3 months; contemplated

SMILES	Relative skin fold thickness of left and right flanks (C57BL/6J [1]; examined on Day 24)	Local increase in subcutaneous fat / asymmetry between flanks (C57BL/6J [1]; following 24 days of therapy, right flank treated, left flank untreated)	Change in cheek fat (human subjects)	Increase in body mass (%) (C57BL/6J [2]; rosiglitazone 0.1% by weight)	Increase in body mass (%) (C57BL/6J [2]; rosiglitazone 0.3% by weight)	Clinical appearance after treatment (patient [3])	Skin wrinkles on clinical exam (patient [4])	Breast size, clinical appearance (patient [5])
CCc1ccc(CCOc2ccc(CC3SC(=O)NC3=O)cc2)nc1 (centres unmarked) [Pioglitazone]	asymmetric, with thicker skin folds on the treated flanks compared to the untreated flanks	exhibited local increases in subcutaneous fat	subjective and/or objective increase in cheek fat	–	–	–	–	–
CN(CCOc1ccc(CC2SC(=O)NC2=O)cc1)c1ccccn1 (centres unmarked) [Rosiglitazone]	–	–	–	5.8%	8.9%	the breasts appear clinically larger	the skin wrinkles appear lessened on clinical exam	the breasts appear clinically larger
